PubChem BioAssay AID504774 – Drosophila RNAi Screening Center – 2011
Aim: 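Genes required for cells to withstand methyl methanesulphonate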 (primary screen). Cells: Drosophila Kc167 cells. Knock-down reagent: long dsRNA against Drosophila genes, about 0.25 µg dsRNA per well. Duration: about 6 days: 3 days knock-down, then 3 days with or without MMS. Challenge: methyl methanesulphonate 0.004% (w/v) for 3 days after knock-down. Measurement: 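Viability in wells given MMS, read as ATP luminescence, normalised by quantiles plate by plate and averaged across replicates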. Direction: mean viability with MMS and viability with MMS: higher = more surviving cells after MMS.
In all, the deposit lists about 23,000 reagents; below is an unselected part of those that have a named target and a result. 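Values are quantile-normalised luminescence on an arbitrary scale; higher means more cells surviving MMS.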 Names joined by + are all predicted targets of the reagent.

mean viability with MMS	viability with MMS, replicate 1	viability with MMS, replicate 2	predicted target	dsRNA
3.47e6	4.04e6	3.89e6	Poxn	DRSC05589
3.57e6	4.21e6	3.88e6	Poxn	DRSC07512
3.43e6	3.88e6	3.90e6	CG30114	DRSC05707
3.66e6	4.05e6	4.21e6	CG12644 (retired record)	DRSC17850
3.36e6	3.72e6	3.81e6	RpS19b	DRSC15773
3.55e6	4.07e6	3.96e6	Ddx1	DRSC11862
3.52e6	4.02e6	3.97e6	CG15186	DRSC12566
3.31e6	4.07e6	4.05e6	Tob	DRSC20294
3.84e6	4.05e6	4.13e6	Lcp65Ag3	DRSC10345
3.27e6	3.71e6	3.71e6	Mms19	DRSC12188
3.53e6	3.93e6	4.06e6	CG11162	DRSC19391
3.52e6	4.04e6	3.95e6	CG11162	DRSC22538
3.69e6	4.14e6	4.18e6	CG18870	DRSC04313
3.61e6	4.12e6	4.05e6	Muc55B	DRSC21440
3.69e6	4.31e6	4.06e6	CG11560	DRSC09843
3.74e6	4.24e6	4.13e6	CG9372	DRSC11068
3.73e6	4.55e6	4.10e6	CG33013 (retired record)	DRSC06286
3.59e6	4.15e6	3.98e6	CG5916	DRSC15917
3.54e6	3.97e6	4.05e6	CG14834	DRSC10204
3.30e6	3.66e6	3.75e6	AGO2	DRSC09999
3.57e6	4.10e6	3.98e6	AGO2	DRSC10847
3.55e6	4.12e6	3.97e6	mAChR-C	DRSC17890
3.56e6	3.98e6	4.07e6	CG42326	DRSC06483
3.50e6	3.99e6	3.96e6	CG42326	DRSC06484
3.56e6	3.99e6	4.05e6	CG30082	DRSC22945
3.43e6	4.03e6	3.63e6	CG1840	DRSC19806
3.63e6	4.05e6	4.16e6	CG30103	DRSC06894
3.40e6	3.82e6	3.85e6	eIF3f2	DRSC04903
3.76e6	4.37e6	4.17e6	CG10097 + CG10096	DRSC14189
3.57e6	3.99e6	4.09e6	CG10097 + CG10096	DRSC14190
3.50e6	3.90e6	4.04e6	Ubc7	DRSC20299
3.55e6	4.02e6	4.03e6	CG7747	DRSC07038
3.36e6	3.76e6	3.84e6	Fur1	DRSC13707
3.46e6	3.89e6	3.98e6	Fur1	DRSC16676
3.36e6	3.82e6	3.83e6	CG1986	DRSC18197
3.35e6	3.90e6	3.69e6	ssp7	DRSC18878
3.46e6	3.94e6	3.89e6	Trf4	DRSC00729
3.66e6	4.27e6	4.04e6	CG15213	DRSC10213
3.41e6	3.79e6	3.90e6	Ugt303B1	DRSC15141
3.49e6	4.10e6	3.81e6	Duba	DRSC10582
3.57e6	4.05e6	4.08e6	CG14854	DRSC14978
3.58e6	4.01e6	4.08e6	alc	DRSC07062
3.56e6	3.93e6	4.16e6	alc	DRSC21464
3.90e6	4.44e6	4.37e6	alc	DRSC23316
3.64e6	3.97e6	4.32e6	Idgf1	DRSC03349
3.51e6	3.99e6	3.97e6	Gpxl	DRSC06538
3.56e6	4.18e6	3.87e6	CG9150	DRSC03148
3.72e6	4.19e6	4.26e6	CG14879	DRSC15003
3.71e6	4.22e6	4.16e6	Drice	DRSC16715
3.64e6	3.91e6	4.47e6	rtv	DRSC19541
3.55e6	4.04e6	4.00e6	RanGAP	DRSC22003
2.98e6	3.55e6	3.55e6	RpL18A	DRSC07538
3.58e6	3.98e6	4.14e6	GNBP1	DRSC11169
3.34e6	3.90e6	3.84e6	GNBP1	DRSC21836
3.37e6	3.80e6	3.77e6	CG17648	DRSC00508
3.48e6	3.85e6	4.04e6	CG15056	DRSC19630
3.52e6	4.03e6	3.96e6	Lis-1	DRSC07459
3.87e6	4.54e6	4.21e6	CG2926	DRSC12321
3.47e6	4.03e6	3.86e6	CG14223	DRSC19580
3.40e6	3.89e6	3.82e6	su(f)	DRSC20907
3.41e6	4.00e6	3.75e6	Dys + snoRNA:Me18S-A1374	DRSC16232
3.61e6	4.11e6	4.07e6	CG13117	DRSC02215
3.46e6	3.62e6	4.13e6	Rtc1	DRSC20285
2.94e6	3.35e6	3.30e6	Elp4	DRSC02999
3.54e6	4.08e6	3.94e6	Fie	DRSC08158
3.60e6	4.16e6	4.01e6	CG32801	DRSC17964
3.93e6	3.95e6	5.06e6	Archease	DRSC16025
3.61e6	4.07e6	4.10e6	Ctr1C	DRSC15089

Laid out differently: entries from further up
CG14223 [DRSC19580] | mean viability with MMS: 3.47e6; viability with MMS, replicate 1: 4.03e6; viability with MMS, replicate 2: 3.86e6
su(f) [DRSC20907] | mean viability with MMS: 3.40e6; viability with MMS, replicate 1: 3.89e6; viability with MMS, replicate 2: 3.82e6
Dys + snoRNA:Me18S-A1374 [DRSC16232] | mean viability with MMS: 3.41e6; viability with MMS, replicate 1: 4.00e6; viability with MMS, replicate 2: 3.75e6
